Results published in PMC7707837.
These are yes or no findings as the source states them, for the method shown. In cells and extracts the contact can be indirect. Some results given as binding are weak or reduced against the parent protein; the word gives no strength. Where a sequence is shown, tags or fusion partners need not be part of it.

Protein sequences, listed by entry. Tags and fused reporters are not part of them.
UniProt Q96AP0: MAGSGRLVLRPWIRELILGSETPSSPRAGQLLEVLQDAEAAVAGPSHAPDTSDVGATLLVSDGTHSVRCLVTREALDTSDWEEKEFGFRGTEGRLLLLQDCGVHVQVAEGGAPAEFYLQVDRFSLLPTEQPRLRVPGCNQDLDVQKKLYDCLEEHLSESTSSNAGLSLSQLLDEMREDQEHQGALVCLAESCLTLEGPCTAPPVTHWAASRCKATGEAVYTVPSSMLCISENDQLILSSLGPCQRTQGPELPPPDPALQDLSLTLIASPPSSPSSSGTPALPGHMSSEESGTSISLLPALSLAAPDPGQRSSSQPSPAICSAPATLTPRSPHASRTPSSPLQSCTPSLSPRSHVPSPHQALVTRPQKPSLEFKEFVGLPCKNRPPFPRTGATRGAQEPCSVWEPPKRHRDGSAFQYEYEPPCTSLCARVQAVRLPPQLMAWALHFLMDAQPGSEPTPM
UniProt P54274: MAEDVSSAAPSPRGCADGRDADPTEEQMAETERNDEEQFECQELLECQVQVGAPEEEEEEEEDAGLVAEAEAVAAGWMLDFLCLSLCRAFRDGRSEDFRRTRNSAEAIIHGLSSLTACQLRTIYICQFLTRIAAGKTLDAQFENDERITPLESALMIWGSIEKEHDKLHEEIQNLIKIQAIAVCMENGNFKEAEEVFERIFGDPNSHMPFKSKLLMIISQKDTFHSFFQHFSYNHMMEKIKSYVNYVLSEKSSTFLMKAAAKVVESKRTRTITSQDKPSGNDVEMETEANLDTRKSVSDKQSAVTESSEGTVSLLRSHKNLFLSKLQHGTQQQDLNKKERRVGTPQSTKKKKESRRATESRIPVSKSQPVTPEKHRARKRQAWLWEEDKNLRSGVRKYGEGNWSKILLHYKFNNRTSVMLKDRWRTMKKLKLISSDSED

Biological target: T1, Flag-(HA)2-tagged wild-type TIN2 (human) (UniProt Q9BSI4)
T1 sequence: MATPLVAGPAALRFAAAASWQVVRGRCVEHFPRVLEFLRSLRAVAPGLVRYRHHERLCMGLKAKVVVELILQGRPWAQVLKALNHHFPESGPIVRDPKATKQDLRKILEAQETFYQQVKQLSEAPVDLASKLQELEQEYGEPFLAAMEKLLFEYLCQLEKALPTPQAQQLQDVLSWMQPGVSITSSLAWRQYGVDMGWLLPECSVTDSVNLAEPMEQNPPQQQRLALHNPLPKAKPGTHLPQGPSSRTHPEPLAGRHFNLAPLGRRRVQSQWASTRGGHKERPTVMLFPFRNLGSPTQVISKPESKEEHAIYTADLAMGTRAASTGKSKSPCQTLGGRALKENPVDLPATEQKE
Assay: co-IP; 293T cells co-transfected with Flag-(HA)2-TIN2 versions and Myc-tagged TRF1 or TPP1; lysates diluted to 200 mM NaCl; HA-tagged TIN2 precipitated with anti-HA agarose beads, 2 hr at 4°C; blots with HA and Myc antibodies

Substance	binding
Myc-tagged TPP1 (from UniProt Q96AP0 1-458)	binds
Myc-tagged TRF1 (from UniProt P54274 1-439)	binds
